Results published in patent US20100143897A1, “Materials and Methods for Assaying for Glyoxylate” (University of South Florida, priority 2005, published 2010).
At least one compound was matched to its structure with a doubt left.

Target: T1, glyoxal oxidase (Phanerodontia chrysosporium, UniProt Q01772)
T1 sequence (Q01772 23-559): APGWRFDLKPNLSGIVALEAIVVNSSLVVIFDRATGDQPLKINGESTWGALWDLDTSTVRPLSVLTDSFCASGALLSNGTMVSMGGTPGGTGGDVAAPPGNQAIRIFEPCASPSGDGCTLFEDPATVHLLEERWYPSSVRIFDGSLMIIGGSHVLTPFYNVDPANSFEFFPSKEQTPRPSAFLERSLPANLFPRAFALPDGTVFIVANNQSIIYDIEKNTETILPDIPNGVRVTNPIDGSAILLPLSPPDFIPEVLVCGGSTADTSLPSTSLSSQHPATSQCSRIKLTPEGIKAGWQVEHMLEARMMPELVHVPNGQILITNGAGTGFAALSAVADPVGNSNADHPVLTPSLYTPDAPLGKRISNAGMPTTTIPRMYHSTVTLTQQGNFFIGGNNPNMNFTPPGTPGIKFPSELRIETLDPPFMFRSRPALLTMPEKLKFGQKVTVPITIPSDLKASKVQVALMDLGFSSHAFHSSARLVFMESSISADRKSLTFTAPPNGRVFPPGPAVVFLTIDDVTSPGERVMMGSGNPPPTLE
Test: Effect of PAM reductant on glyoxal oxidase enzyme activity
Type: biochemical
Settings: reductant for PAM catalysis

O=C1O[C@H]([C@@H](O)CO)C(O)=C1O [ascorbate]
inhibition of the enzyme activity of glyoxal oxidase: severely inhibit
